Some of the results follow.
What follows are sequences tested against T1, OsSMF1 (Oryza sativa, UniProt Q6ZLB0 1-436) (assay: protein-binding microarray (RPBM); PBS, 2% BSA, 51.3 ng/ul salmon testes DNA, 50 uM zinc acetate, 200 nM TF, 25 C, 1 h; high values mean tight binding). Settings: protein: recombinant; tags: N-terminal polyhistidine and DsRed monomer fusion (pET32a); chain copies: 2; label: CyDye5-dUTP incorporated in the synthesized complementary strand; 3' TTTTT single-stranded linker to array surface; dsDNA, one strand shown.
T1 sequence: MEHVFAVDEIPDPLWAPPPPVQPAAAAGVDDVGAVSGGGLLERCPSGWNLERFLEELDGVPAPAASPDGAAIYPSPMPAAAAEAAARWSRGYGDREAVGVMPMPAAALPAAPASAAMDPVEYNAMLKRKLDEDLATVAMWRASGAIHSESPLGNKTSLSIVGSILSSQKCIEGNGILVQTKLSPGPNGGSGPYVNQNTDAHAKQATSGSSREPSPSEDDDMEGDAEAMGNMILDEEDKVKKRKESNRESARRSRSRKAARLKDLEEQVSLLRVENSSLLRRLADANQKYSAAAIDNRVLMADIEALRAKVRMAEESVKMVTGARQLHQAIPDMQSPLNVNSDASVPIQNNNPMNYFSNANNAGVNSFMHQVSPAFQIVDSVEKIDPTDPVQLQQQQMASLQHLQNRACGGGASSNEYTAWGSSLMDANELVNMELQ
How it was run: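 Binding signal here means per-feature fluorescence intensity in arbitrary units. The values were read on an Axon 4000B scanner after a custom Agilent array, double-stranded by primer extension with Cy5-dUTP, was incubated with 200 nM protein at 25 °C for 1 h in PBS with 2% BSA, salmon testes DNA and 50 µM zinc acetate, then washed. The proteins were transcription factors with an N-terminal polyhistidine tag and DsRed, expressed in E. coli BL21-CodonPlus and purified on Ni–NTA.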
In the case of “AGGATTGAAAACCCACTCTTCCGCTTCTCCTCCCAATCTCCGGAGTCACCTAGTGCAG”, the binding signal is reported as 14100 fluorescence intensity (a.u.). “TCTAAGCTTTGAATTGCAGTGACATGAATATAGCTTTAGTCGGAGTCACCTAGTGCAG” was tested, and the binding signal was 3440 fluorescence intensity (a.u.). In the case of “ATCTAAACGGCGACGTGGCAGCGGGTCGCGTGAGCGTGACCGGAGTCACCTAGTGCAG”, the binding signal is reported as 4270 fluorescence intensity (a.u.). In the case of “CCATTCTCCATGTACCCTCCCATACCATACCATACTCCTCCGGAGTCACCTAGTGCAG”, the binding signal is reported as 3620 fluorescence intensity (a.u.). With “TCCTCGCGCCGCGCCAGCGCTGACGTAGCCGTAGGTCGCCCGGAGTCACCTAGTGCAG” the binding signal was 11700 fluorescence intensity (a.u.). In the case of “AGTAAAAGGAGAACTGAAGAAGAAGGCATCGCGGACGCCCCGGAGTCACCTAGTGCAG”, the binding signal is reported as 8600 fluorescence intensity (a.u.). With “TCGGCTTCACTTGGAACAAATCGTCATCATCCTCGCCGCCCGGAGTCACCTAGTGCAG” the binding signal was 5550 fluorescence intensity (a.u.). In the case of “TCCATCAGTATCACGCGTTCGTCCTACGATTTCGTCATGACGGAGTCACCTAGTGCAG”, the binding signal is reported as 24800 fluorescence intensity (a.u.). With “AAACAAATCGAGCTCCTTTGGTTAATTTGTACCACGTCAGCGGAGTCACCTAGTGCAG” the binding signal was 19200 fluorescence intensity (a.u.). For “TCGTTGGATTAGCTCACTAGCCGTTGGGGACACGTGGCACCGGAGTCACCTAGTGCAG”, the binding signal was 14300 fluorescence intensity (a.u.). For “GCTATTGACTGTATCTAGTACTATTTCAAATTGTCAACGACGGAGTCACCTAGTGCAG”, the binding signal was 3200 fluorescence intensity (a.u.). With “TTCCCCACGATAAACACGTACGCGCGCGCCTACTCGCGGCCGGAGTCACCTAGTGCAG” the binding signal was 3950 fluorescence intensity (a.u.). For “GACGATGGCGTCTGCAGCGTCCGCGGGTGGATCCGTTAGCCGGAGTCACCTAGTGCAG”, the binding signal was 3860 fluorescence intensity (a.u.). “CGCACTGCGTCGCGCCACGCCGCGTGGGCCCGCCGCCGACCGGAGTCACCTAGTGCAG” was tested, and the binding signal was 4500 fluorescence intensity (a.u.). “GTTGTTTTGTCCCATGCAGGCTGCAGGCTGACCTGATCAACGGAGTCACCTAGTGCAG” was tested, and the binding signal was 3240 fluorescence intensity (a.u.). With “AAAAGAGTCTAATCTATGCAGCAGCCGCATCAGCTATAGCCGGAGTCACCTAGTGCAG” the binding signal was 3350 fluorescence intensity (a.u.). With “ATAAGTGGTAGTCAGTGATGATGGTCACCTTTGACGGGTCCGGAGTCACCTAGTGCAG” the binding signal was 4170 fluorescence intensity (a.u.). For “AATAACCACGTATATATAACTTCTAACCCTAGTTAACAACCGGAGTCACCTAGTGCAG”, the binding signal was 3310 fluorescence intensity (a.u.). For “CCATCTCATTCAGTTTTATTCCGCGCGCCTCCTAAATCGCCGGAGTCACCTAGTGCAG”, the binding signal was 15900 fluorescence intensity (a.u.). “GAACGGCGCCAGGACATGCTCCACGTCGTCGTTGATCTTTCGGAGTCACCTAGTGCAG” was tested, and the binding signal was 6040 fluorescence intensity (a.u.). For “AGGGGAAGTCAGTGAGGGCGAAGCACACGTGGCGCTCTCCCGGAGTCACCTAGTGCAG”, the binding signal was 16600 fluorescence intensity (a.u.). With “CGGATATACAAACACACATTTGAAGTATTAAACGTAGTCTCGGAGTCACCTAGTGCAG” the binding signal was 3400 fluorescence intensity (a.u.). For “ACAGCCAAAATCTTTCGAAAGATGTATAGGTACTCGCAAACGGAGTCACCTAGTGCAG”, the binding signal was 3710 fluorescence intensity (a.u.). For “CTAACCTCTTGGTGCGTCCAATCCATCGTGTATCGGTTCCCGGAGTCACCTAGTGCAG”, the binding signal was 4150 fluorescence intensity (a.u.). With “ACAGTATCAATGATGTTGGCGTCATCCTTCTTGTCTACCGCGGAGTCACCTAGTGCAG” the binding signal was 6460 fluorescence intensity (a.u.). “CTTCTTCACCAAATCCATGGCGATCTTACACAAACCTGGACGGAGTCACCTAGTGCAG” was tested, and the binding signal was 3220 fluorescence intensity (a.u.). “CCTAGCCCTCCTCCTACTCCTCTGCAATGGTAGATTGCGCCGGAGTCACCTAGTGCAG” was tested, and the binding signal was 47700 fluorescence intensity (a.u.). For “ACGTTGGCGCTGATACGTTATAGCTTAGCGCCAATGTCTACGGAGTCACCTAGTGCAG”, the binding signal was 27700 fluorescence intensity (a.u.). “TTGCGAGAGAATGAGTCAGTCAGGATTGATCAGCAAATCACGGAGTCACCTAGTGCAG” was tested, and the binding signal was 4750 fluorescence intensity (a.u.). “TTTTCTCCATAAGCCTAGTGACACGTGTCAGCATAATAAACGGAGTCACCTAGTGCAG” was tested, and the binding signal was 13600 fluorescence intensity (a.u.). With “ACATTGGTAGCTTGAACATAAATATATTGATTTTAGTTTGCGGAGTCACCTAGTGCAG” the binding signal was 5600 fluorescence intensity (a.u.). With “TGTACTGATGCATTTGCTGGCCTCACACGTCTCCACCTGCCGGAGTCACCTAGTGCAG” the binding signal was 3480 fluorescence intensity (a.u.). “ATGTGTTCTACTATGTATGTATGTGAAAATGCAGTGAAGTCGGAGTCACCTAGTGCAG” was tested, and the binding signal was 4050 fluorescence intensity (a.u.). “GTCGTTGCTGTATATCCACGACCACGTCAAAACTGATCCCCGGAGTCACCTAGTGCAG” was tested, and the binding signal was 5180 fluorescence intensity (a.u.). With “TGGTCGTGATGCGTCATGTGAACTGCTGACTACCTTCTTCCGGAGTCACCTAGTGCAG” the binding signal was 9930 fluorescence intensity (a.u.). “TCGTATGTGTCATTGAAGCCCCACATATCATTGTCACGTACGGAGTCACCTAGTGCAG” was tested, and the binding signal was 4020 fluorescence intensity (a.u.). In the case of “TTAACCACAGTGCCGTTCTCTAGCCACCATCTCAGCAGCACGGAGTCACCTAGTGCAG”, the binding signal is reported as 3270 fluorescence intensity (a.u.). “ACTTTACTTTCCGATCTGATGCGTGTTACATACTTGGCATCGGAGTCACCTAGTGCAG” was tested, and the binding signal was 3460 fluorescence intensity (a.u.). In the case of “CGTGCTGACGTGCAGGTTCGCCTTTTCTCCATCCGCCTCTCGGAGTCACCTAGTGCAG”, the binding signal is reported as 18200 fluorescence intensity (a.u.). “TTCTCCATGTGGGCGCCCATCACCGTGAGCGCCAGTCTCTCGGAGTCACCTAGTGCAG” was tested, and the binding signal was 3170 fluorescence intensity (a.u.). With “TCGATTCCAGCTGTGGCACCCATAGAGAAATGAGCCCGTCCGGAGTCACCTAGTGCAG” the binding signal was 56300 fluorescence intensity (a.u.). With “GAATGAAAATTGAGGTCAGCAATGAGCGATGTGTATCCCCCGGAGTCACCTAGTGCAG” the binding signal was 3360 fluorescence intensity (a.u.).

Reference: PMC7819943, “Rice protein-binding microarrays: a tool to detect cis-acting elements near promoter regions in rice”
